{
  "source": "the supplement of paper PMC3334620",
  "note": "Over roughly 33,000 sequences, “E-score (-0.5 to 0.5)” has its median near -0.0059; the highest 2% begin near 0.26. This is one part of the list.",
  "data": [
    {"biological_target": "T1, Cin5 (UniProt P40917)", "T1 sequence": "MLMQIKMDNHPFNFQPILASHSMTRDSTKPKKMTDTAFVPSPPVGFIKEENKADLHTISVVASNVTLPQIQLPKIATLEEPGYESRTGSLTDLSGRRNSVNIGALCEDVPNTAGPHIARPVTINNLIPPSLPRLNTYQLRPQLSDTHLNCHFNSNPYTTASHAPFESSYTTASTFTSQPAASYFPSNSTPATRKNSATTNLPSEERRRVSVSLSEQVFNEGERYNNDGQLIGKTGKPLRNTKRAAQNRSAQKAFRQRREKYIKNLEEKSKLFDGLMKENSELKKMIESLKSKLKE", "assay": "PBM E-score (8-mer binding enrichment) (E-score (-0.5 to 0.5)); higher = stronger / more preferred TF binding", "details": "protein concentration: 100 nM; construct: GST-full length", "method_in_brief": "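Universal all-10-mer Agilent arrays, double-stranded by primer extension on fresh or once-stripped slides, were probed with about 100-200 nM GST-tagged yeast transcription factors made by PURExpress. Fluorescent anti-GST detected bound protein, and masliner normalised the scans. E-scores from the Universal PBM Analysis Suite were given to each ungapped eight-base word pooled with its reverse complement.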", "values": [
      {"sequence": "CCGAGAAG", "PBM E-score": -0.0618},
      {"sequence": "CGTGTACA", "PBM E-score": 0.155},
      {"sequence": "CACTTTAA", "PBM E-score": 0.159},
      {"sequence": "ATACCACG", "PBM E-score": 0.0683},
      {"sequence": "AGATTCGC", "PBM E-score": -0.0341},
      {"sequence": "ATGGCGTG", "PBM E-score": 0.126},
      {"sequence": "CCTAGACG", "PBM E-score": -0.162},
      {"sequence": "CTAATTTA", "PBM E-score": 0.158},
      {"sequence": "CACTGCAG", "PBM E-score": -0.0359},
      {"sequence": "GAAAGCGC", "PBM E-score": -0.147},
      {"sequence": "GAACCTTC", "PBM E-score": -0.0397},
      {"sequence": "ACCAAAGT", "PBM E-score": 0.00958},
      {"sequence": "AACCAGTG", "PBM E-score": -0.124},
      {"sequence": "CGAAGCAG", "PBM E-score": -0.0936},
      {"sequence": "ACAGCTGG", "PBM E-score": -0.0712},
      {"sequence": "TTCCTCAA", "PBM E-score": -0.0594},
      {"sequence": "GTAAAAGA", "PBM E-score": 0.0603},
      {"sequence": "AGGAGCCA", "PBM E-score": -0.193},
      {"sequence": "AACACTCA", "PBM E-score": 0.182},
      {"sequence": "TGGTGGAA", "PBM E-score": -0.0761},
      {"sequence": "ACAGGCCG", "PBM E-score": -0.134},
      {"sequence": "GAGTACTC", "PBM E-score": 0.0898},
      {"sequence": "GCAGTGTA", "PBM E-score": -0.126},
      {"sequence": "AGTCTCCG", "PBM E-score": 0.13},
      {"sequence": "GCTGCCAC", "PBM E-score": -0.142},
      {"sequence": "AAGGACAT", "PBM E-score": -0.159},
      {"sequence": "GAAAAATA", "PBM E-score": 0.158},
      {"sequence": "AGATACTC", "PBM E-score": 0.14},
      {"sequence": "ACTGACGA", "PBM E-score": -0.0541},
      {"sequence": "TAAGTTAA", "PBM E-score": 0.175},
      {"sequence": "ACATCGCG", "PBM E-score": -0.0247},
      {"sequence": "GATTGTGC", "PBM E-score": 0.00566},
      {"sequence": "CCTGCCGC", "PBM E-score": -0.267},
      {"sequence": "TCGGTAAA", "PBM E-score": 0.0995},
      {"sequence": "ACCAGCTC", "PBM E-score": -0.0121},
      {"sequence": "CGTCAACG", "PBM E-score": -0.14},
      {"sequence": "AAAATCCT", "PBM E-score": -0.223},
      {"sequence": "ATGCCCGG", "PBM E-score": -0.11},
      {"sequence": "CCTGGATA", "PBM E-score": -0.223},
      {"sequence": "ACCTTTTA", "PBM E-score": -0.188},
      {"sequence": "CCGCCGCG", "PBM E-score": -0.128},
      {"sequence": "ATCCTTTG", "PBM E-score": 0.131},
      {"sequence": "GATCGGCC", "PBM E-score": -0.242},
      {"sequence": "CACTTTTC", "PBM E-score": 0.155},
      {"sequence": "GTATGCAC", "PBM E-score": -0.0543},
      {"sequence": "ACCACGGG", "PBM E-score": -0.131},
      {"sequence": "AATTTTAC", "PBM E-score": 0.11},
      {"sequence": "GTGTTATA", "PBM E-score": 0.101},
      {"sequence": "CCAAAAAG", "PBM E-score": -0.0799},
      {"sequence": "GTTGGGTA", "PBM E-score": 0.0626},
      {"sequence": "CCCAAGGC", "PBM E-score": -0.0737},
      {"sequence": "GGAGGCTA", "PBM E-score": -0.236},
      {"sequence": "ATAATCGC", "PBM E-score": 0.187},
      {"sequence": "ACATTAAG", "PBM E-score": 0.0877},
      {"sequence": "CCCGCCGA", "PBM E-score": -0.0686},
      {"sequence": "ACCGGTTA", "PBM E-score": 0.056},
      {"sequence": "CATAACCC", "PBM E-score": 0.0376},
      {"sequence": "GAATTGTA", "PBM E-score": -0.0336},
      {"sequence": "CTTGCAAA", "PBM E-score": 0.109},
      {"sequence": "AGAAACAA", "PBM E-score": 0.229},
      {"sequence": "CAGATGCA", "PBM E-score": -0.076},
      {"sequence": "AACCACGA", "PBM E-score": -0.00917},
      {"sequence": "GCTTCGGA", "PBM E-score": -0.00651},
      {"sequence": "CAAGTTCA", "PBM E-score": 0.202},
      {"sequence": "GATTATGA", "PBM E-score": 0.291},
      {"sequence": "CTGCAGAA", "PBM E-score": 0.0919},
      {"sequence": "CCGTTCGA", "PBM E-score": 0.0174},
      {"sequence": "CGCGGCTC", "PBM E-score": 0.0421},
      {"sequence": "CATGGCGG", "PBM E-score": -0.0455},
      {"sequence": "ATACAGAA", "PBM E-score": 0.158},
      {"sequence": "CCGTGGCG", "PBM E-score": -0.165},
      {"sequence": "CCTTAAAG", "PBM E-score": -0.108},
      {"sequence": "AGCTGGTG", "PBM E-score": -0.0421},
      {"sequence": "CATTTAGG", "PBM E-score": -0.185},
      {"sequence": "CCAAATAC", "PBM E-score": -0.0406},
      {"sequence": "ACAACACT", "PBM E-score": 0.176},
      {"sequence": "ACGCCGTA", "PBM E-score": -0.0821},
      {"sequence": "GGATGTTA", "PBM E-score": 0.123},
      {"sequence": "CTTGCAGA", "PBM E-score": -0.0335},
      {"sequence": "CTCGGAAA", "PBM E-score": 0.115},
      {"sequence": "GTCGCGGA", "PBM E-score": -0.118},
      {"sequence": "AGGGGTAT", "PBM E-score": -0.00308},
      {"sequence": "CTATAATA", "PBM E-score": 0.114},
      {"sequence": "CAAGCATA", "PBM E-score": 0.117},
      {"sequence": "GCATAGGC", "PBM E-score": -0.109},
      {"sequence": "CACATCCA", "PBM E-score": 0.0527},
      {"sequence": "AACATAGC", "PBM E-score": 0.0812},
      {"sequence": "CGATAGCG", "PBM E-score": 0.0741},
      {"sequence": "ACTAAATA", "PBM E-score": 0.181},
      {"sequence": "CCAGCGGA", "PBM E-score": -0.278},
      {"sequence": "ACGCATGC", "PBM E-score": 0.118},
      {"sequence": "CCCTCTTA", "PBM E-score": -0.0202},
      {"sequence": "AAGGCTTG", "PBM E-score": -0.0768},
      {"sequence": "CAACGTAC", "PBM E-score": -0.00344}
    ]}
  ]
}
